Literature values, collected in patent US20220411750A1, “CELL STRUCTURE, PRODUCTION METHOD THEREOF, AND METHOD FOR EVALUATING HEPATOTOXICITY OF SUBSTANCE TO BE TESTED” (TOPPAN INC., priority 2019, published 2022).

Conditions: Yes/No; Yes for No. 1-14, No for No. 15-18; cited from earlier work

CCCCc1oc2ccccc2c1C(=O)c1cc(I)c(OCCN(CC)CC)c(I)c1 [Amiodarone]
Toxicity: Yes
